Laboratory results taken from patent US20240139326A1, “METHACRYLAMIDES PROTEIN BINDERS AND USES THEREOF” (YEDA RESEARCH AND DEVELOPMENT CO. LTD., priority 2020, published 2024).
At least one structure is not confirmed: it was looked up by name or label, or the drawing left a doubt.

Amino acid sequences for entries named in this document (tags omitted). Residues count along the entry.
UniProt Q06187, 402-655: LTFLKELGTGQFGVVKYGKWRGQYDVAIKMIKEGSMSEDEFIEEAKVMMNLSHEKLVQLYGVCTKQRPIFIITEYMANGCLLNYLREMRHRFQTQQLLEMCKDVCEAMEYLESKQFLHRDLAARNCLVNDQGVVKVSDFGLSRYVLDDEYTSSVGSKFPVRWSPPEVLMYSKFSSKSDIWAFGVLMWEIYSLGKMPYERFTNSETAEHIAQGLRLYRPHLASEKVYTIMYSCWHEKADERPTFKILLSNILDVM

Target: BTK kinase domain (Homo sapiens (Human), UniProt Q06187)
Test: Kinetic labeling experiments of Ibrutinib derivatives with BTK (intact protein LC/MS)
Settings: mechanism of BTK labeling

`C=C(C)C(=O)N1CCC[C@@H](n2nc(-c3ccc(Oc4ccccc4)cc3)c3c(N)ncnc32)C1` [Compound 3a, (R)-1-(3-(4-amino-3-(4-phenoxyphenyl)-1H-pyrazolo[3,4-d]pyrimidin-1-yl)piperidin-1-yl)-2-methylprop-2-en-1-one] was tested, and the “BTK Substitution/Addition” value was “Substitution”.
